Record: PubChem BioAssay AID1259405 (NCATS, 2018)

Assay: 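Silenced genes that increase secreted GFP made by CHO cells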 (primary screen)
System: Chinese hamster CHO-K1 ovary cells with stable secreted eGFP expression
Reagent: single siRNA against mouse genes, 0.8 pmol siRNA per well (2 µl of 400 nM stock)
Timing: 3 days
Measured: 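Per-well intracellular GFP measured by laser scanning cytometry, plus viability from ATP luminescence, each relative to plate median of non-targeting control wells, in %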
Scale: GFP, % of control: higher = more GFP per well, higher productivity; viability (ATP), % of control: higher = more viable cells (more ATP)
Hit rule: 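Called active when intracellular GFP, relative to negative control, is at or above 120%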
Here is one part, drawn at random, of about 50,000 deposited reagents. About 4,000 of them (8%) were called active. 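Mouse siRNA library applied to hamster cells; one well for each siRNA.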 The numbers tell different reagents against one gene apart.

Adprm (ADP-ribose/CDP-alcohol diphosphatase, manganese dependent) #1 — GFP, % of control = 72.9; viability (ATP), % of control = 63.6; Call = inactive
Adprm (ADP-ribose/CDP-alcohol diphosphatase, manganese dependent) #2 — GFP, % of control = 93.7; viability (ATP), % of control = 65.3; Call = inactive
Adprm (ADP-ribose/CDP-alcohol diphosphatase, manganese dependent) #3 — GFP, % of control = 71.3; viability (ATP), % of control = 51.7; Call = inactive
Scaper (S phase cyclin A-associated protein in the ER) #1 — GFP, % of control = 42; viability (ATP), % of control = 73.4; Call = inactive
Scaper (S phase cyclin A-associated protein in the ER) #2 — GFP, % of control = 150; viability (ATP), % of control = 64.7; Call = active
Scaper (S phase cyclin A-associated protein in the ER) #3 — GFP, % of control = 89.9; viability (ATP), % of control = 88.2; Call = inactive
Slc39a13 #1 — GFP, % of control = 48.8; viability (ATP), % of control = 77.4; Call = inactive
Slc39a13 #2 — GFP, % of control = 73.2; viability (ATP), % of control = 82.3; Call = inactive
Slc39a13 #3 — GFP, % of control = 68.3; viability (ATP), % of control = 89.3; Call = inactive
Rdh16f2 (RDH16 family member 2) #1 — GFP, % of control = 137; viability (ATP), % of control = 132; Call = active
Rdh16f2 (RDH16 family member 2) #2 — GFP, % of control = 73.5; viability (ATP), % of control = 76.4; Call = inactive
Rdh16f2 (RDH16 family member 2) #3 — GFP, % of control = 58.2; viability (ATP), % of control = 30.8; Call = inactive

Continued (3 carried over from the part before).
Rdh16f2 (RDH16 family member 2) #1 — GFP, % of control = 137; viability (ATP), % of control = 132; Call = active
Rdh16f2 (RDH16 family member 2) #2 — GFP, % of control = 73.5; viability (ATP), % of control = 76.4; Call = inactive
Rdh16f2 (RDH16 family member 2) #3 — GFP, % of control = 58.2; viability (ATP), % of control = 30.8; Call = inactive
Cyp2f2 (cytochrome P450, family 2, subfamily f, polypeptide 2) #1 — GFP, % of control = 54.5; viability (ATP), % of control = 72.8; Call = inactive
Cyp2f2 (cytochrome P450, family 2, subfamily f, polypeptide 2) #2 — GFP, % of control = 154; viability (ATP), % of control = 110; Call = active
Cyp2f2 (cytochrome P450, family 2, subfamily f, polypeptide 2) #3 — GFP, % of control = 120; viability (ATP), % of control = 81.3; Call = inactive
Sftpd (surfactant associated protein D) #1 — GFP, % of control = 92.2; viability (ATP), % of control = 97.6; Call = inactive
Sftpd (surfactant associated protein D) #2 — GFP, % of control = 96.7; viability (ATP), % of control = 93.7; Call = inactive
Rwdd3 (RWD domain containing 3) #1 — GFP, % of control = 93.2; viability (ATP), % of control = 89.5; Call = inactive
Rwdd3 (RWD domain containing 3) #2 — GFP, % of control = 82.3; viability (ATP), % of control = 63.3; Call = inactive
Rwdd3 (RWD domain containing 3) #3 — GFP, % of control = 154; viability (ATP), % of control = 78.1; Call = active
Rwdd3 (RWD domain containing 3) #4 — GFP, % of control = 71; viability (ATP), % of control = 51.1; Call = inactive
Rwdd3 (RWD domain containing 3) #5 — GFP, % of control = 62.6; viability (ATP), % of control = 79.2; Call = inactive
Rwdd3 (RWD domain containing 3) #6 — GFP, % of control = 81.1; viability (ATP), % of control = 86.4; Call = inactive
Trib1 (tribbles pseudokinase 1) #1 — GFP, % of control = 107; viability (ATP), % of control = 96.4; Call = inactive
Trib1 (tribbles pseudokinase 1) #2 — GFP, % of control = 81.4; viability (ATP), % of control = 54; Call = inactive
Trib1 (tribbles pseudokinase 1) #3 — GFP, % of control = 69.7; viability (ATP), % of control = 64.4; Call = inactive
Trim60 (tripartite motif-containing 60) #1 — GFP, % of control = 83.3; viability (ATP), % of control = 52.6; Call = inactive
Trim60 (tripartite motif-containing 60) #2 — GFP, % of control = 115; viability (ATP), % of control = 105; Call = inactive
Trim60 (tripartite motif-containing 60) #3 — GFP, % of control = 86.9; viability (ATP), % of control = 99.7; Call = inactive
